{
  "sequences": {"note": "Chains of the proteins cited; added tags and fusions are not shown. Lines headed by an entry give the natural chain unless they say otherwise; changes in a name come on top.", "UniProt P0CAW2": "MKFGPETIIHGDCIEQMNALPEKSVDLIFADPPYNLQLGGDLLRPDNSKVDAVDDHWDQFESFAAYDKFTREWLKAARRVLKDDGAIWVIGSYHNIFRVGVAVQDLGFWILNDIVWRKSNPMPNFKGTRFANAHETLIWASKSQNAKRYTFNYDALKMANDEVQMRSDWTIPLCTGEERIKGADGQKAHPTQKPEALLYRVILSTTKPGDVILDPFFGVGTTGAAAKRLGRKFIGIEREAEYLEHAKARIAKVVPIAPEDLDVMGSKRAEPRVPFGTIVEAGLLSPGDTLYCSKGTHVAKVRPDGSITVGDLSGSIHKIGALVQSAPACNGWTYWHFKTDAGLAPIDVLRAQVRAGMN"},
  "source": "paper PMC6787082",
  "molecular_target": "CcrM (Caulobacter crescentus) (UniProt P0CAW2)",
  "assay": "X-ray crystallography (crystals, 3.0 A)",
  "settings": "sinefungin; Co-crystallization: protein stock in 20 mM HEPES pH 8.0, 300 mM NaCl, 5% glycerol, 0.5 mM TCEP; ~1:1 monomer:duplex (~56 uM), 5x sinefungin; well 0.1 M HEPES pH 7.8; recombinant protein; residues 1-358; protein details: N-terminal His-tag",
  "note": "For at least one entry, the source does not settle the construct or the ends of the probe. At least one verdict was read from the data and is not stated in words by the source.",
  "data": [
    {"sequence": "CGTATCAATGAATCCCAAG / GCTTGGGATTCATTGATAC [GAATC duplex, CGTATC flank]", "values": [
      {"measurement": "binding result", "value": "binds"}
    ]}
  ]
}
